Consider four compounds from patent publication US10479979B2, “Method for making and using cold atmospheric plasma stimulated media for cancer treatment” (U.S. Patent Innovations, LLC, priority 2015, dated 2019).

Some compounds share one wording; it may come from a single statement.

The subject of the data set is cancer cells. Description: Reaction of amino acids with effective species in CAPs DMEM, cancer cells as cell probe. It is filed as cell-based. The conditions noted are these: 2.4 mM amino acid rich DMEM, among 20 amino acids.
With `NCCCC[C@H](N)C(=O)O` [lysine], the “reactivity towards the effective species in CAPs media” value was “react significantly with the effective species”.

In the case of `NC(=O)C[C@H](N)C(=O)O` [asparagine], the “reactivity towards the effective species in CAPs media” value is “react significantly with the effective species”.

For the compound `N=C(N)NCCC[C@H](N)C(=O)O` [arginine], the “reactivity towards the effective species in CAPs media” value was “react significantly with the effective species”.

On to `NC(=O)CC[C@H](N)C(=O)O` [glutamine], for which the “reactivity towards the effective species in CAPs media” value is “react significantly with the effective species”.
